Laboratory results: publication PMC9283393
Results are given in words; binding and its absence hold for the method and conditions named. Binding seen in cells or lysates may run through a third protein.

Sequences of proteins named here, by UniProt entry; tags and fusion partners are left off. A change or cut given only in a name is not applied to a line headed by its entry. Residues count along the entry.
UniProt O14964: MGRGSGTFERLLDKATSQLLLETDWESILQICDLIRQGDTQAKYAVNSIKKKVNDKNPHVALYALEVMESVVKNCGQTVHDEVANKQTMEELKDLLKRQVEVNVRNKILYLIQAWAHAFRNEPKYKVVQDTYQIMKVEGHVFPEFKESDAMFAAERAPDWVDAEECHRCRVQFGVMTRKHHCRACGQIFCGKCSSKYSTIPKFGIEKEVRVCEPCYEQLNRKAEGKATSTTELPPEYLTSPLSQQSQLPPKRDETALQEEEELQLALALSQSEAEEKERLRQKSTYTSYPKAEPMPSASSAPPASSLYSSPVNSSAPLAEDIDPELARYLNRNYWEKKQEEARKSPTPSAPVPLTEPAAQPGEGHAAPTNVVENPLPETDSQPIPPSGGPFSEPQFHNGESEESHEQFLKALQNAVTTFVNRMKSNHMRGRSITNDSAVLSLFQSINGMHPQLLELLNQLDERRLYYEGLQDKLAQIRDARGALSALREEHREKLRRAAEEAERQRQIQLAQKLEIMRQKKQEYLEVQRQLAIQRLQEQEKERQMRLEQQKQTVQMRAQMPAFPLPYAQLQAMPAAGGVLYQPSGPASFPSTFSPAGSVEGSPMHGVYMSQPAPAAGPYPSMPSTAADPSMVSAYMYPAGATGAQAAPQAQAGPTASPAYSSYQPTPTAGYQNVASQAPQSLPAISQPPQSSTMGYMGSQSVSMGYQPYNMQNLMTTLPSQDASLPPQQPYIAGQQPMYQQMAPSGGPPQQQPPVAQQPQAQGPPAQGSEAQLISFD
UniProt Q9NZQ7, residues 19-290: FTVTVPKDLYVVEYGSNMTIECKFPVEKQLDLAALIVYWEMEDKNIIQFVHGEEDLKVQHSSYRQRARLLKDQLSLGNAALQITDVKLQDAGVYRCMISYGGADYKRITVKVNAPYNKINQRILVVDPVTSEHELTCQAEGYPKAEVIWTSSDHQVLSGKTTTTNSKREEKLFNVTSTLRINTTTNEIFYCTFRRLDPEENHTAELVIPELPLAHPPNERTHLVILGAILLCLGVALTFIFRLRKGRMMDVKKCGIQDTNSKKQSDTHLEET

Molecular target: Flag-tagged HRS fragment with further deletion of a.a. 276–478 (UniProt O14964)
Assay: co-IP; cells expressing PD-L1 and Flag-tagged full-length HRS or fragments; anti-Flag immunoprecipitation; western blot of bound PD-L1

For “PD-L1 (expressed together with Flag-HRS constructs, Fig. 3j) (from UniProt Q9NZQ7 19-290)”, the binding was “no binding”.
